Measured values reported in the supplement of paper PMC10331698.
± gives the standard deviation of the averaged measurements. Most values lie at the level of the controls, where differences are scatter.

Experiments:
Experiment in all cases: level (log10 ratio to DMSO vehicle control); higher = higher biomarker level / cell amount than vehicle control
[1] = compound: C=C(C)C(=O)OCCC(F)(F)C(F)(F)C(F)(F)C(F)(F)C(F)(C(F)(F)F)C(F)(F)F [(Perfluoro-5-methylhexyl)ethyl 2-methylprop-2-enoate]; conditions: in DMSO
Experimental: (§1)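 BioMAP Diversity Plus panel of 12 human primary cell co-culture systems (3C, 4H, LPS, SAg, BT, BF4T, BE3C, CASM3C, HDF3CGF, KF3CT, MyoF, Mphg). Compounds were added 1 h before stimulation and left for 24 h (MyoF 48 h; BT 72 h for soluble read-outs or 6 d for IgG). Biomarkers were read by ELISA, cytotoxicity by SRB, PBMC viability and proliferation by Alamar Blue. Each well value was divided by the mean of 8 DMSO control wells on the same plate and log10 transformed; duplicate blinded samples were tested at 4 concentrations.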

[2] = compound: C=C(C)C(=O)OCCC(F)(F)C(F)(F)C(F)(F)C(F)(F)C(F)(F)C(F)(F)C(F)(F)C(F)(F)F [8:2 Fluorotelomer methacrylate]; conditions: in DMSO
Experimental: as §1

[3] = compound: COC(=O)CCC(F)(F)C(F)(F)C(F)(F)C(F)(F)F [Methyl 2H,2H,3H,3H-perfluoroheptanoate]; conditions: 2200 nM; in DMSO
Experimental: as §1

[4] = compound: FC(F)(F)C(F)(F)C(F)(F)C(F)(F)C(F)(F)CCI [1-Iodo-1H,1H,2H,2H-perfluoroheptane]; conditions: 2200 nM; in DMSO
Experimental: as §1

Octafluoroadipamide = compound: NC(=O)C(F)(F)C(F)(F)C(F)(F)C(F)(F)C(N)=O [Octafluoroadipamide]; conditions: 2200 nM; in DMSO
Experimental: as §1

Nonafluoropentanamide = compound: NC(=O)C(F)(F)C(F)(F)C(F)(F)C(F)(F)F [Nonafluoropentanamide]; conditions: 2200 nM; in DMSO
Experimental: as §1

[5] = compound: NS(=O)(=O)C(F)(F)C(F)(F)C(F)(F)C(F)(F)C(F)(F)C(F)(F)F [Perfluorohexanesulfonamide]; conditions: 2200 nM; in DMSO
Experimental: as §1

Tetrafluorosuccinic acid = compound: O=C(O)C(F)(F)C(F)(F)C(=O)O [Tetrafluorosuccinic acid]; conditions: 2200 nM; in DMSO
Experimental: as §1

[6] = compound: O=C(O)C(F)(F)C(F)(F)C(F)(F)C(F)(F)C(F)(F)C(F)(F)C(F)(F)C(F)(F)Cl [9-Chloro-perfluorononanoic acid]; conditions: in DMSO
Experimental: as §1

[7] = compound: O=C(O)CCC(F)(F)C(F)(F)C(F)(F)C(F)(F)C(F)(F)F [2H,2H,3H,3H-Perfluorooctanoic acid]; conditions: 2200 nM; in DMSO
Experimental: as §1

[8] = compound: O=S(=O)(O)C(F)(F)C(F)(F)OC(F)(F)C(F)(F)F [Perfluoro(2-ethoxyethane)sulfonic acid]; conditions: 2200 nM; in DMSO
Experimental: as §1

[9] = compound: O=S(=O)(O)CCC(F)(F)C(F)(F)C(F)(F)C(F)(F)C(F)(F)C(F)(F)F [6:2 Fluorotelomer sulfonic acid]; conditions: in DMSO
Experimental: as §1

Perfluoropinacol = compound: OC(C(F)(F)F)(C(F)(F)F)C(O)(C(F)(F)F)C(F)(F)F [Perfluoropinacol]; conditions: in DMSO
Experimental: as §1

[10] = compound: OCCC(F)(F)C(F)(F)C(F)(F)C(F)(F)F [4:2 Fluorotelomer alcohol]; conditions: 2200 nM; in DMSO
Experimental: as §1

Test System	level (log10) ([1]; 740 nM)	level (log10) ([1]; 2200 nM)	level (log10) ([1]; 6700 nM)	level (log10) ([1]; 20000 nM)	level (log10) ([2]; 740 nM)	level (log10) ([2]; 2200 nM)	level (log10) [3]	level (log10) [4]	level (log10) (Octafluoroadipamide)	level (log10) (Nonafluoropentanamide)	level (log10) [5]	level (log10) (Tetrafluorosuccinic acid)	level (log10) ([6]; 2200 nM)	level (log10) ([6]; 6700 nM)	level (log10) ([6]; 20000 nM)	level (log10) [7]	level (log10) [8]	level (log10) ([9]; 2200 nM)	level (log10) ([9]; 6700 nM)	level (log10) ([9]; 20000 nM)	level (log10) ([9]; 60000 nM)	level (log10) (Perfluoropinacol; 2200 nM)	level (log10) (Perfluoropinacol; 6700 nM)	level (log10) (Perfluoropinacol; 20000 nM)	level (log10) [10]
CASM3C:SRB	-0.005 ± 0.0057	0.0025 ± 0.005	-0.0025 ± 0.005	-0.0095 ± 0.0035	0.0055 ± 0.0078	-0.0025 ± 0.0021	0.001 ± 0.0071	-0.0015 ± 0.0078	0.0125 ± 0.03	0.0055 ± 0.00071	0.0085 ± 0.0021	-0.004 ± 0.0014	-0.0015 ± 0.013	-0.001 ± 0.0028	0.0045 ± 0.0078	-0.0015 ± 0.015	-0.001 ± 0.017	-0.0015 ± 0.0021	-0.004 ± 0.0028	0.0025 ± 0.0021	0.001 ± 0.0085	-0.0025 ± 0.019	-0.02 ± 0.0099	-0.061 ± 0.0057	-0.0015 ± 0.011
LPS:sPGE2	-0.0175 ± 0.026	-0.025 ± 0.05	-0.038 ± 0.05	-0.016 ± 0.064	-0.0525 ± 0.035	-0.081 ± 0.013	0.0255 ± 0.04	-0.0055 ± 0.0078	0.0525 ± 0.00071	-0.0125 ± 0.023	0.001 ± 0.062	-0.005 ± 0.0057	0.007 ± 0.035	0.0175 ± 0.0092	-0.0895 ± 0.0078	-0.049 ± 0.031	-0.0005 ± 0.0078	-0.0035 ± 0.012	-0.008 ± 0.023	-0.0215 ± 0.047	-0.0345 ± 0.029	0.0195 ± 0.032	0.086 ± 0.038	0.182 ± 0.015	-0.033 ± 0.013
HDF3CGF:EGFR	-0.03 ± 0.044	-0.0545 ± 0.012	-0.0695 ± 0.0078	-0.0415 ± 0.0064	-0.009 ± 0.0042	-0.023 ± 0.042	-0.044 ± 0.0099	-0.089 ± 0.2	-0.0345 ± 0.14	-0.071 ± 0.037	0.0265 ± 0.0078	0.01 ± 0.051	-0.0525 ± 0.063	-0.135 ± 0.099	-0.2 ± 0.054	-0.0235 ± 0.04	-0.0155 ± 0.018	-0.039 ± 0.044	-0.0455 ± 0.022	-0.0535 ± 0.025	-0.0305 ± 0.029	-0.024 ± 0.083	-0.029 ± 0.057	-0.146 ± 0.038	-0.032 ± 0.016
BF4T:CCL26/Eotaxin-3	-0.041 ± 0.044	-0.0175 ± 0.016	-0.0125 ± 0.0064	0.016 ± 0.044	0.017 ± 0.081	0.013 ± 0.033	-0.024 ± 0.057	-0.008 ± 0.02	0.0285 ± 0.071	-0.02 ± 0.014	0.007 ± 0.028	0.002 ± 0.072	-0.134 ± 0.058	-0.144 ± 0.016	-0.27 ± 0.014	0.026 ± 0.086	0.069 ± 0.0071	0.035 ± 0.062	0.001 ± 0.018	-0.0535 ± 0.011	-0.08 ± 0.078	-0.0035 ± 0.047	-0.108 ± 0.0042	-0.217 ± 0.0057	0.0115 ± 0.07
SAg:CD38	-0.004	-0.028 ± 0.0014	-0.011 ± 0.016	-0.0055 ± 0.015	0.011 ± 0.027	-0.012 ± 0.02	-0.01 ± 0.016	0.0015 ± 0.015	-0.0115 ± 0.0021	-0.018 ± 0.065	0.0685 ± 0.047	0.0135 ± 0.021	-0.009 ± 0.031	-0.02 ± 0.021	-0.0315 ± 0.028	-0.0045 ± 0.044	0.006 ± 0.023	0.002 ± 0.047	-0.0315 ± 0.012	-0.022 ± 0.04	-0.0505 ± 0.032	-0.0075 ± 0.0035	-0.012 ± 0.021	-0.113 ± 0.023	0.034 ± 0.064
LPS:CD69	0.087 ± 0.033	-0.002 ± 0.011	-0.019 ± 0.069	-0.0145 ± 0.08	-0.029 ± 0.0071	-0.0255 ± 0.033	0.0075 ± 0.057	0.002 ± 0.0028	-0.0075 ± 0.091	-0.022 ± 0.047	-0.002 ± 0.0042	0.009 ± 0.041	-0.015 ± 0.021	-0.0335 ± 0.026	-0.063 ± 0.028	-0.022 ± 0.058	0.0035 ± 0.0021	-0.025 ± 0.064	-0.0315 ± 0.037	-0.033 ± 0.055	-0.111 ± 0.057	-0.0455 ± 0.015	-0.105 ± 0.063	-0.192 ± 0.064	-0.0025 ± 0.046
CASM3C:HLA-DR	-0.0125 ± 0.0064	-0.0185 ± 0.0078	-0.0175 ± 0.019	-0.01 ± 0.0085	0.009 ± 0.013	0.0015 ± 0.0078	0.015 ± 0.013	0.008 ± 0.025	0.007 ± 0.072	-0.0205 ± 0.013	0.0125 ± 0.039	-0.008 ± 0.0028	0.01 ± 0.016	0.0085 ± 0.0035	0.0015 ± 0.012	-0.0025 ± 0.04	0.0185 ± 0.011	0.0085 ± 0.029	0.0245 ± 0.005	-0.0115 ± 0.0035	-0.001 ± 0.0085	-0.0335 ± 0.0021	-0.0885 ± 0.042	-0.207	-0.0185 ± 0.00071
lMphg:SRB-Mphg	0.0075 ± 0.005	0.005 ± 0.0071	0.0015 ± 0.011	-0.0095 ± 0.021	0.017 ± 0.02	0.0065 ± 0.0064	0.004 ± 0.02	0.011 ± 0.013	0.013 ± 0.041	-0.0035 ± 0.013	0.005 ± 0.0085	0.013 ± 0.0071	-0.002 ± 0.0085	0.01 ± 0.0042	0.0055 ± 0.018	0.0045 ± 0.0021	0.012 ± 0.0042	0.0085 ± 0.00071	0.0065 ± 0.0064	0.0135 ± 0.0078	0.0025 ± 0.036	0.0015 ± 0.0092	-0.015 ± 0.0099	-0.05 ± 0.0028	-0.016 ± 0.11
SAg:Proliferation	0.0315 ± 0.043	0.05 ± 0.0085	0.011 ± 0.0085	0.009 ± 0.018	0.0015 ± 0.013	0.003 ± 0.04	0.0235 ± 0.011	-0.013 ± 0.068	0.001 ± 0.0099	0.0575 ± 0.025	-0.0055 ± 0.086	-0.033 ± 0.083	-0.052 ± 0.021	-0.036 ± 0.033	0.02 ± 0.02	-0.026 ± 0.061	-0.002 ± 0.033	-0.037 ± 0.05	-0.019 ± 0.027	-0.0255 ± 0.023	-0.0225 ± 0.0035	0.02 ± 0.0014	0.0035 ± 0.093	-0.163 ± 0.021	-0.0035 ± 0.016
BF4T:SRB	-0.0085 ± 0.005	-0.008 ± 0.016	-0.016 ± 0.011	-0.007 ± 0.025	0.019 ± 0.0099	0.0075 ± 0.0078	-0.004 ± 0.0057	0.006 ± 0.013	0.0025 ± 0.016	-0.0075 ± 0.012	0.009 ± 0.013	0.0015 ± 0.005	0.0045 ± 0.015	-0.013 ± 0.0071	-0.0555 ± 0.0064	0.0235 ± 0.022	0.016 ± 0.023	0.0185 ± 0.026	0.0005 ± 0.00071	-0.003 ± 0.0042	-0.003 ± 0.0057	0.005 ± 0.018	-0.0135 ± 0.0021	-0.031 ± 0.0014	0.009 ± 0.0042
